Drug screen on melanoma cell lines: apoptosis marker

Data from the primary screen of doi:10.1371/journal.pone.0140310, rounded.

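The test systems are human melanoma cell lines, treated with two drugs together for 72 h and then stained and imaged. Each value is the cleaved-PARP-positive fraction of nuclei relative to DMSO-treated wells, in %, so that 100 equals the control and higher values mean more apoptosis. Every drug was used at one fixed concentration, the higher of two screened. The file gives one value for each pair and line, without errors, so small differences may be noise. Basal and induced levels differ widely between cell lines.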
Only some of the drugs and lines screened are listed, without regard to their results.
An entry leaves out what has no value listed here.

Drugs:
decitabine (0.5 µM): Nc1ncn([C@H]2C[C@H](O)[C@@H](CO)O2)c(=O)n1
bortezomib (0.005 µM): CC(C)C[C@H](NC(=O)[C@H](Cc1ccccc1)NC(=O)c1cnccn1)B(O)O
darinaparsin (2 µM): C[As](C)SC[C@H](NC(=O)CC[C@H](N)C(=O)O)C(=O)NCC(=O)O
SU6656 (2 µM): CN(C)S(=O)(=O)c1ccc2c(c1)/C(=C/c1cc3c([nH]1)CCCC3)C(=O)N2
L-779450 (1 µM): Oc1cc(-c2nc(-c3ccccc3)[nH]c2-c2ccncc2)ccc1Cl
VX-702 (2 µM): NC(=O)c1ccc(N(C(N)=O)c2c(F)cccc2F)nc1-c1ccc(F)cc1F
vorinostat (0.4 µM): O=C(CCCCCCC(=O)Nc1ccccc1)NO

{"drugs": "vorinostat and SU6656", "MZ2-MEL": 218, "IPC-298": 325, "A101D": 191, "LOX IMVI": 135, "RPMI-7951": 143, "LB2518-MEL": 189}
{"drugs": "decitabine and SU6656", "MZ2-MEL": 359, "IPC-298": 135, "A101D": 73.9, "LOX IMVI": 398, "RPMI-7951": 133, "LB2518-MEL": 74.0}
{"drugs": "SU6656 and darinaparsin", "MZ2-MEL": 381, "IPC-298": 80.8, "A101D": 178, "LOX IMVI": 110, "RPMI-7951": 89.1, "LB2518-MEL": 104}
{"drugs": "L-779450 and SU6656", "MZ2-MEL": 121, "IPC-298": 71.9, "A101D": 43.2, "LOX IMVI": 102, "RPMI-7951": 310, "LB2518-MEL": 73.0}
{"drugs": "L-779450 and vorinostat", "MZ2-MEL": 59.3, "IPC-298": 173, "A101D": 42.7, "LOX IMVI": 122, "RPMI-7951": 35.6, "LB2518-MEL": 67.3}
{"drugs": "VX-702 and SU6656", "MZ2-MEL": 455, "IPC-298": 98.1, "A101D": 272, "LOX IMVI": 41.8, "RPMI-7951": 183, "LB2518-MEL": 181}
{"drugs": "decitabine and bortezomib", "MZ2-MEL": 24500, "IPC-298": 2500, "A101D": 655, "LOX IMVI": 1760, "RPMI-7951": 3170, "LB2518-MEL": 10700}
{"drugs": "darinaparsin and vorinostat", "MZ2-MEL": 195, "IPC-298": 37.8, "A101D": 60.8, "LOX IMVI": 47.5, "RPMI-7951": 104, "LB2518-MEL": 120}
{"drugs": "vorinostat and bortezomib", "MZ2-MEL": 24400, "IPC-298": 1740, "A101D": 483, "LOX IMVI": 645, "RPMI-7951": 2380, "LB2518-MEL": 11400}
{"drugs": "L-779450 and decitabine", "MZ2-MEL": 106, "IPC-298": 205, "A101D": 93.1, "LOX IMVI": 172, "RPMI-7951": 63.9, "LB2518-MEL": 118}
{"drugs": "decitabine and vorinostat", "MZ2-MEL": 239, "IPC-298": 130, "A101D": 135, "LOX IMVI": 86.9, "RPMI-7951": 101, "LB2518-MEL": 142}
{"drugs": "L-779450 and bortezomib", "MZ2-MEL": 19500, "IPC-298": 1600, "A101D": 342, "LOX IMVI": 240, "RPMI-7951": 1300, "LB2518-MEL": 1230}
{"drugs": "VX-702 and L-779450", "MZ2-MEL": 20.3, "IPC-298": 50.5, "A101D": 503, "LOX IMVI": 132, "RPMI-7951": 54.2, "LB2518-MEL": 38.8}
{"drugs": "darinaparsin and decitabine", "MZ2-MEL": 63.4, "IPC-298": 104, "A101D": 67.3, "LOX IMVI": 223, "RPMI-7951": 136, "LB2518-MEL": 91.1}
{"drugs": "bortezomib and darinaparsin", "MZ2-MEL": 11900, "IPC-298": 4600, "A101D": 380, "LOX IMVI": 833, "RPMI-7951": 1340, "LB2518-MEL": 1240}
{"drugs": "darinaparsin and L-779450", "IPC-298": 71.3, "A101D": 220, "LOX IMVI": 167, "RPMI-7951": 163}
{"drugs": "decitabine and VX-702", "MZ2-MEL": 152, "IPC-298": 227, "A101D": 31.2, "LOX IMVI": 88.3, "RPMI-7951": 230, "LB2518-MEL": 43.0}
{"drugs": "bortezomib and SU6656", "MZ2-MEL": 17800, "IPC-298": 3230, "A101D": 575, "LOX IMVI": 214, "RPMI-7951": 2700, "LB2518-MEL": 7180}
{"drugs": "vorinostat and VX-702", "MZ2-MEL": 62.1, "IPC-298": 122, "A101D": 107, "LOX IMVI": 108, "RPMI-7951": 43.2, "LB2518-MEL": 121}
{"drugs": "bortezomib and VX-702", "MZ2-MEL": 21800, "IPC-298": 3640, "A101D": 620, "LOX IMVI": 85.2, "RPMI-7951": 4090, "LB2518-MEL": 13800}
{"drugs": "darinaparsin and VX-702", "MZ2-MEL": 119, "IPC-298": 98.7, "A101D": 189, "LOX IMVI": 136, "RPMI-7951": 54.8, "LB2518-MEL": 82.0}